These results are taken from the supplement of paper PMC11006884.

Protein sequences, listed by entry. Tags and fused reporters are not part of them. Lines headed by an entry give the natural chain unless they say otherwise; changes in a name come on top.
UniProt P34932: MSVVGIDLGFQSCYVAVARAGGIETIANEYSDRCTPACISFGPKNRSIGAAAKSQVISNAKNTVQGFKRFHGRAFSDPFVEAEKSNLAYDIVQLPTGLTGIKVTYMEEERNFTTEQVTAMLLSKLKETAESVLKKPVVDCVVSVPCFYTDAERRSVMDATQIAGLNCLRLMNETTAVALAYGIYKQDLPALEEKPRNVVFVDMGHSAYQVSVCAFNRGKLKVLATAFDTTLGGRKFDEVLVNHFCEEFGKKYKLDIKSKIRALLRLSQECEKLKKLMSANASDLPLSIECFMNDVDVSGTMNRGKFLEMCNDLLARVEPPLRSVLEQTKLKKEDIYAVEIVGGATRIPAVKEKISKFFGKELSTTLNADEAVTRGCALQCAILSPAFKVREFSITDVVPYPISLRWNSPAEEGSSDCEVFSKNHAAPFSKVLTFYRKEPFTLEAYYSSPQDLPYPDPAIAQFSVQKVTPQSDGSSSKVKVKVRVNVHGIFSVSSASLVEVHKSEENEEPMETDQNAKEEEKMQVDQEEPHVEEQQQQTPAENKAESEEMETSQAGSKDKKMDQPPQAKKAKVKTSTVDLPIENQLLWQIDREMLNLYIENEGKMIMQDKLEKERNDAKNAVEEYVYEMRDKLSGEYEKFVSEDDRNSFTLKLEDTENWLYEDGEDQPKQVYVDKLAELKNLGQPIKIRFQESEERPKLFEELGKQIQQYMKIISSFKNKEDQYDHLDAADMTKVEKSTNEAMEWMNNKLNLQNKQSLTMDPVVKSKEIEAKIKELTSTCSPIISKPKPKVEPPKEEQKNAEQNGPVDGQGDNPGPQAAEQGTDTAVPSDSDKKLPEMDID
UniProt P36873, whole entry, looked up: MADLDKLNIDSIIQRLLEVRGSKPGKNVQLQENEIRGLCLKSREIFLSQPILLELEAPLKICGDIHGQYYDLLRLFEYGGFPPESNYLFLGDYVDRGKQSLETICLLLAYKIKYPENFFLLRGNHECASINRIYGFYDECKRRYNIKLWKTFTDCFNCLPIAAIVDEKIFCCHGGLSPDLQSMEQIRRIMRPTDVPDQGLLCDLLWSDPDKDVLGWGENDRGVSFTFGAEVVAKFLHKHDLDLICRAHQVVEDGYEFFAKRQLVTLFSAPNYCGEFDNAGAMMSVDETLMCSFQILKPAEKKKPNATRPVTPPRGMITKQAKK
UniProt P41091, whole entry, looked up: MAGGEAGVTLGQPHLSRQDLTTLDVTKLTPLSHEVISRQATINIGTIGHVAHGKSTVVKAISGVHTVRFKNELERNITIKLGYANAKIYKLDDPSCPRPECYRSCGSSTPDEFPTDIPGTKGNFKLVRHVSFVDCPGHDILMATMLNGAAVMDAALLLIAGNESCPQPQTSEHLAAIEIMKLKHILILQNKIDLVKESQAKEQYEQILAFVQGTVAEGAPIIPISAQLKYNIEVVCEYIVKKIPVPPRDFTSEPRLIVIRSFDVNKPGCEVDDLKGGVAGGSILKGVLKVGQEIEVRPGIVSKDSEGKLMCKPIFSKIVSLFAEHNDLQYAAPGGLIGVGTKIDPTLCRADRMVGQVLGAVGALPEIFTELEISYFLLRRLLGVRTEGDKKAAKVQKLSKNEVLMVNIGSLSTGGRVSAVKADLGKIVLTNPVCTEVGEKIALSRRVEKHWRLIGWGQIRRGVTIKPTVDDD
UniProt P37802: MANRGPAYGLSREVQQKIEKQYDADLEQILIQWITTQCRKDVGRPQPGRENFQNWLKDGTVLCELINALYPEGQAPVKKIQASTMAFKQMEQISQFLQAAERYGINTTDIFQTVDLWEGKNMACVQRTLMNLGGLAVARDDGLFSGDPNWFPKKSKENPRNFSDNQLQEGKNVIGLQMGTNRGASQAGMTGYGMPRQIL
UniProt P35579, whole entry, looked up: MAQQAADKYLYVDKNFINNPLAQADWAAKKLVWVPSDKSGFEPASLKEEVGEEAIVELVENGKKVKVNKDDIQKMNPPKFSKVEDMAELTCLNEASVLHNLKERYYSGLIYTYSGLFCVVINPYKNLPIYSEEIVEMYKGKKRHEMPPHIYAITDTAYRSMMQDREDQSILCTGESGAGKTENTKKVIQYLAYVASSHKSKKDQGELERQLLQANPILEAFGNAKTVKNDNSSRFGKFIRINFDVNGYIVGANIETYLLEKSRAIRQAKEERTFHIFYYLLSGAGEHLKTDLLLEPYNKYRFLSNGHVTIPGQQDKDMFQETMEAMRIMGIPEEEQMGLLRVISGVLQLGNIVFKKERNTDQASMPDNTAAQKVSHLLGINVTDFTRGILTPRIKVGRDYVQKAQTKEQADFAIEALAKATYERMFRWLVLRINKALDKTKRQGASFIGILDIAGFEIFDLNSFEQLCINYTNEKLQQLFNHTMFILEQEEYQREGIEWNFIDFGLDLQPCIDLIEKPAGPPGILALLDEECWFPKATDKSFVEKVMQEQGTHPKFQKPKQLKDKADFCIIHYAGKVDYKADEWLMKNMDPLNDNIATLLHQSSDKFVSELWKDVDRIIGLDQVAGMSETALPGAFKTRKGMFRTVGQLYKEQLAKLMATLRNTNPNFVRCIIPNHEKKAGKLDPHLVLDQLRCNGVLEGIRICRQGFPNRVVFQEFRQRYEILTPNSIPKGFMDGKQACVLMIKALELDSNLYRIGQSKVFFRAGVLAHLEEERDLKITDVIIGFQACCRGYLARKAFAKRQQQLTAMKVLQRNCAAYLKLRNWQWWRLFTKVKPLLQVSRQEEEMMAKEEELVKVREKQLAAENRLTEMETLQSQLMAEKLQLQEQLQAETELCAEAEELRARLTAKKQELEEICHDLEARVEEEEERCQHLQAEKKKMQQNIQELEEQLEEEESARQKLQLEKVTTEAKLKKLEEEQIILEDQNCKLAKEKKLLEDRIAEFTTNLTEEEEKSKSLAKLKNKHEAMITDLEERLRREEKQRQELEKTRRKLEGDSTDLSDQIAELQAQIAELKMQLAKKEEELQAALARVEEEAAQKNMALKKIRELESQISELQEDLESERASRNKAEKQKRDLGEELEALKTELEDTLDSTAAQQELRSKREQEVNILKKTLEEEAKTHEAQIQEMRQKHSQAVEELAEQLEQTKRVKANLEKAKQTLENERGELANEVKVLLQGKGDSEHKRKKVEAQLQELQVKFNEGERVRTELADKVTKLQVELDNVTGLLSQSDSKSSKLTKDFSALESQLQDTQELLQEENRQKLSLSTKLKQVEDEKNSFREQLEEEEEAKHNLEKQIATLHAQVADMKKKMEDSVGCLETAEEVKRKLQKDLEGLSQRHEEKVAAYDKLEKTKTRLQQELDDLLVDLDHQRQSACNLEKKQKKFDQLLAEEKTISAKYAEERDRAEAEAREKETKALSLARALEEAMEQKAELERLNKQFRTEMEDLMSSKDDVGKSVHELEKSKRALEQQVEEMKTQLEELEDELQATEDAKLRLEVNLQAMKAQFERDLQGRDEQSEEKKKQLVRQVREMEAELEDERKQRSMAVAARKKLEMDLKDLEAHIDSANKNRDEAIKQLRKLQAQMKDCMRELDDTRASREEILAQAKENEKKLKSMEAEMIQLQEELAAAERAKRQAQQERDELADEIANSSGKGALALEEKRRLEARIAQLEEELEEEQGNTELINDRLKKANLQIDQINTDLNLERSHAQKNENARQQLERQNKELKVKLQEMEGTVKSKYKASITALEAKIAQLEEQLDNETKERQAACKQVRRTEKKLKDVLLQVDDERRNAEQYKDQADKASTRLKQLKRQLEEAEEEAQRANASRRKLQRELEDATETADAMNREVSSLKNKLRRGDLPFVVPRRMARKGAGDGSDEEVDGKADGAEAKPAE
UniProt P36969, whole entry, looked up: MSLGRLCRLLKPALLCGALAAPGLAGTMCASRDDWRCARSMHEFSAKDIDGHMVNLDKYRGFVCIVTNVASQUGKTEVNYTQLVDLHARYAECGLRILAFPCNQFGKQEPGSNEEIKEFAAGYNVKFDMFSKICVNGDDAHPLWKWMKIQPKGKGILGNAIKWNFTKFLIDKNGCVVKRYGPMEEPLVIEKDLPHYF
UniProt P40938, whole entry, looked up: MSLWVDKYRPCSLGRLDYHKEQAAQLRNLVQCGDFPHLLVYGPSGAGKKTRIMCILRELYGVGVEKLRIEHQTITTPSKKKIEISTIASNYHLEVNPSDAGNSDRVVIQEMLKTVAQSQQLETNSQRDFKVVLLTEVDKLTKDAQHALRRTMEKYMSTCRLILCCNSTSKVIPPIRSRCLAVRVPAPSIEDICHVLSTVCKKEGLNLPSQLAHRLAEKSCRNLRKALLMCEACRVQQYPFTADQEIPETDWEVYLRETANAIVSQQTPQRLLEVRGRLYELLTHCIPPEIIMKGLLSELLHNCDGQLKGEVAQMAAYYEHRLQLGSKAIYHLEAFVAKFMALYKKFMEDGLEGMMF
UniProt P30626: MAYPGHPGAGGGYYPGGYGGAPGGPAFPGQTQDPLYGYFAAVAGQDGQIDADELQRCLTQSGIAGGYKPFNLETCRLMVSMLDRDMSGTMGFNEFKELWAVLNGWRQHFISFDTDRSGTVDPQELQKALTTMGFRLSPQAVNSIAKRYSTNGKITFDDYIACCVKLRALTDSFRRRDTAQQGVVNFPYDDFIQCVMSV
UniProt P34897: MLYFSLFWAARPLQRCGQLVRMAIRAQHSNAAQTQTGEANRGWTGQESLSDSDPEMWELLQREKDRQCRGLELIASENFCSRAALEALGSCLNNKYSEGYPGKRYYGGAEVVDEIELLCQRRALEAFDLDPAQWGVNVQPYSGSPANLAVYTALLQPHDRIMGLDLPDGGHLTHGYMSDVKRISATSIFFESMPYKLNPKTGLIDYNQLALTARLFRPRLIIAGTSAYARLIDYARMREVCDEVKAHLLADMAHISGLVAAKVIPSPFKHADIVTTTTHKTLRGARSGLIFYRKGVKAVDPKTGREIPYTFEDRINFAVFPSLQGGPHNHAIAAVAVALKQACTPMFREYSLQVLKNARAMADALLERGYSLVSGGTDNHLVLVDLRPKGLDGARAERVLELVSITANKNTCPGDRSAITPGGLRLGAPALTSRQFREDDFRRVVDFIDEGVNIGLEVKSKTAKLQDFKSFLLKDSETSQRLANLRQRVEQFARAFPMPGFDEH
UniProt P33981: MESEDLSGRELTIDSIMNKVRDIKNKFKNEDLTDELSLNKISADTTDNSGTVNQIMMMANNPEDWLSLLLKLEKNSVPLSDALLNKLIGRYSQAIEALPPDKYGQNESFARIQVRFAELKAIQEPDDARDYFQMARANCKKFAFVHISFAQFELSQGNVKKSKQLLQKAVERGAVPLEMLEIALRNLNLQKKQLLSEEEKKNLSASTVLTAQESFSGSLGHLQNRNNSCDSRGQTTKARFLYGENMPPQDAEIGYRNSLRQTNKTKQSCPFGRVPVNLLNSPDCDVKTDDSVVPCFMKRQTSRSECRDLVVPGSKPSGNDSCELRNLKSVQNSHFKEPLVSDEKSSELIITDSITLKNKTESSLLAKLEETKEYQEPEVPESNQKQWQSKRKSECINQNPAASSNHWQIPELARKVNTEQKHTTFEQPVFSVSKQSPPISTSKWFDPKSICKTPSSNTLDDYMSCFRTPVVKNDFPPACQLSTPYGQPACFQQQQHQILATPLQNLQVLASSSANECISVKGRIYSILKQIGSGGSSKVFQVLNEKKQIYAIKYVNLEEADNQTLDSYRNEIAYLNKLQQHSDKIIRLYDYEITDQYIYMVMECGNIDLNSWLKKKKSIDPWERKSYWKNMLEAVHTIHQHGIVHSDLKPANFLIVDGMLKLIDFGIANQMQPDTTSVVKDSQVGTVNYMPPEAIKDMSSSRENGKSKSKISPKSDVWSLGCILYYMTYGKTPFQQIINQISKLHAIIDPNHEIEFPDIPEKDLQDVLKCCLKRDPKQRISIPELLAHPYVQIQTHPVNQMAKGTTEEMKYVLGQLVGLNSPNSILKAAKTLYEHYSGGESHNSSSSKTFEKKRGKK
UniProt P35637: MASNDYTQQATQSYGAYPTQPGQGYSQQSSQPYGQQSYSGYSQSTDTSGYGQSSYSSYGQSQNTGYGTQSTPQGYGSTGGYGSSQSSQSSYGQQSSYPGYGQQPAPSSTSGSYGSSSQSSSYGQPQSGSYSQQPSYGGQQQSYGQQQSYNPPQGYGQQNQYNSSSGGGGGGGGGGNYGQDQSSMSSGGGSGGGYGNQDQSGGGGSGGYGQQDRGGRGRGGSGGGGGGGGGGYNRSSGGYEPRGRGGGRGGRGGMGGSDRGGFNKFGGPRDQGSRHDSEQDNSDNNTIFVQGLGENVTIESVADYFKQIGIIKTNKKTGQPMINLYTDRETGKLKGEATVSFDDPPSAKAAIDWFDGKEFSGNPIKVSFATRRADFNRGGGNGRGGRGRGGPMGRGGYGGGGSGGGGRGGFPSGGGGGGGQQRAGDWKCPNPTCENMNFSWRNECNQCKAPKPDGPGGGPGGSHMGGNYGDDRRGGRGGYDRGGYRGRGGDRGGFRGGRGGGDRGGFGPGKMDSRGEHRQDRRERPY

The list shows a part of the results, in another mix than the full data.

Compound in this assay: COC(=O)C#Cc1ccccc1 [methyl 3-phenylpropiolate]
Nature of the assay: log2 ratio of iodoacetamide-alkyne labeling of the cysteine site, DMSO over compound (competition); higher = stronger covalent engagement of the cysteine by the compound, active = 1 or more. The conditions noted are these: 500 µM; treatment time 1 h; system: HEK293T cell lysate. The gist of the method: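 HEK293T lysate (2 mg/mL) was incubated with electrophile (500 µM) or vehicle for 1 h at ambient temperature and then with iodoacetamide alkyne for 1 h. Labelled proteins were clicked to sCIP-TMT reagents, pooled, digested, enriched on streptavidin and measured by Orbitrap Eclipse LC-MS/MS with FAIMS, with FragPipe quantification. The per-cysteine log2 competition ratio is mean control-channel reporter intensity over mean compound-channel reporter intensity. Across three replicates with duplicate channels, cysteines quantified in only one replicate were excluded.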
In the case of HSPA4 C245 (UniProt P34932), the “log2 ratio of iodoacetamide-alkyne labeling” value (shortened to “log2 ratio”) was inactive: 0.117. As for PPP1CC C127 (UniProt P36873), the “log2 ratio” value is inactive: 0.00134. To EIF2S3 C269 (UniProt P41091) belongs inactive: 0.221. Turning to SDHA C311 (UniProt P31040), the “log2 ratio” value was inactive: 0.021.

As to TAGLN2 C38 (UniProt P37802), the “log2 ratio” value was inactive: -0.0194. In the case of RFC2 C88 (UniProt P35250) it was inactive: 0.226; in that of NCAPD3 C1293 (UniProt P42695), inactive: 0.714. Turning to TMPO C570 (UniProt P42166), the “log2 ratio” value was active: 1.16.

As to MYH9 C988 (UniProt P35579), the “log2 ratio” value is inactive: -0.0255.

In the case of KIF5B C7 (UniProt P33176), the “log2 ratio” value is inactive: 0.0873. Turning to AKT2 C297 (UniProt P31751), the “log2 ratio” value is inactive: 0.698. Regarding GPX4 C93 (UniProt P36969), the “log2 ratio” value was inactive: 0.0252. In the case of RFC3 C32 (UniProt P40938), the “log2 ratio” value was inactive: 0.04. Consider PPP2R1A C294 (UniProt P30153), for which the “log2 ratio” value was inactive: 0.323. Consider TMPO C518 (UniProt P42166), for which the “log2 ratio” value is inactive: 0.44. Consider SHMT1 C68 (UniProt P34896), for which the “log2 ratio” value was inactive: 0.0107.

Regarding KIF5B C421 (UniProt P33176), the “log2 ratio” value was inactive: -0.155.

On to MCM4 C509 (UniProt P33991), for which the “log2 ratio” value was inactive: 0.1.

PPP2R1A C377 (UniProt P30153): the “log2 ratio” value was inactive: 0.919. For RPL4 C96 (UniProt P36578), the “log2 ratio” value was active: 1.24.

Take ATIC C575 (UniProt P31939): the “log2 ratio” value is inactive: 0.12. For the target NCAPD3 C1316 (UniProt P42695), the “log2 ratio” value was inactive: 0.714.

Take MTOR C300 (UniProt P42345): the “log2 ratio” value was inactive: 0.376. To MCM5 C219 (UniProt P33992) belongs active: 1.34; to SRI C194 (UniProt P30626), inactive: -0.125. Regarding WNT5A C182 (UniProt P41221), the “log2 ratio” value was inactive: 0.308. In the case of CTNNA1 C720 (UniProt P35221), the “log2 ratio” value was inactive: 0.223. In the case of RPL13A C38 (UniProt P40429) it was inactive: -0.0858; in that of MATR3 C563 (UniProt P43243), inactive: 0.00502; in that of SHMT2 C412 (UniProt P34897), inactive: 0.124. Regarding UniProt P35568_C494, the “log2 ratio” value is inactive: 0.123. For the target CDC25C C42 (UniProt P30307), the “log2 ratio” value was inactive: 0.613. As for TTK C284 (UniProt P33981), the “log2 ratio” value is inactive: 0.53. To LRPPRC C484 (UniProt P42704) belongs inactive: 0.184; to MDH1 C137 (UniProt P40925), inactive: 0.0579; to FUS C444 (UniProt P35637), inactive: -0.312.

Take TAGLN2 C124 (UniProt P37802): the “log2 ratio” value is inactive: 0.482.
